# In paper PMC12186257, “Serendipitous and Systematic Chemoproteomic Discovery of MBLAC2, HINT1, and NME1‑4 Inhibitors from Histone Deacetylase-Targeting Pharmacophores” (ACS Chemical Biology, 2025):
# System: compound-binding proteins such as HDACs, MBLAC2, ISOC1/2, ALDH2, and GATD3A
# Test: chemoproteomic competition assay, proteome-wide target binding profile
# Set-up: species or system human
# Conditions: Figure 1e; combined data from this study and a previous profiling
# Method: MBLAC2 is a metalloenzyme predicted to harbor one or two Zn^2+ ions in its active site. […] In this assay, compounds of interest are incubated at increasing concentrations with a mixture of lysates of MV4–11 and SW620 cells. The compound-treated lysates are then mixed with bead-immobilized hydroxamic acid-containing compounds iA, iC, and iQ (immobilized Quisinostat), which pull down compound-binding proteins such as HDACs, MBLAC2, ISOC1/2, ALDH2, and GATD3A (Figure a) that can be identified and quantified by mass spectrometry (MS). Proteins targeted by the library compounds in a preincubation step are prevented from being pulled down by the immobilized probes, leading to a dose-dependent reduction in MS signal. Initially, 12 metal-chelating compounds were profiled at two concentrations (10 μM and 100 μM) (Figure S3).
# Chemoproteomic competition assays
# Sample preparation. For the MBLAC2 and HDAC inhibitor competition assay, the generation of affinity matrices, lysate generation, pulldown assay, and sample preparation were performed as described in detail in REF1. For the kinobeads assay, the generation of affinity matrices, lysate generation, pulldown assay, and sample preparation were performed as described in detail in REF2.
# LC-MS/MS. The different sample types were measured with different LC-MS/MS settings. MBLAC2 2-dose competition assays were measured with the Lumos1 setup, MBLAC2 9-dose competition assays were measured with the Lumos2 setup, and kinobeads assays were measured with the Eclipse setup.
# Peptides were analyzed via LC–MS/MS on a Dionex Ultimate3000 nano HPLC coupled to either one of two Orbitrap Fusion Lumos mass spectrometers, or to an Orbitrap Eclipse mass spectrometer, operated via the Thermo Scientific Xcalibur software.
# In the all setups, peptides were loaded on a trap column (100 μm × 2 cm, packed in-house with Reprosil-Gold C18 ODS-3 5 μm resin, Dr. Maisch, Ammerbuch) and washed with 5 μL/min solvent A (0.1% formic acid in HPLC grade water) for 10 min. Peptides were then separated on an analytical column (75 μm × 40 cm, packed in-house with Reprosil-Gold C18 3μm resin, Dr. Maisch, Ammerbuch) using a 50 min gradient ranging from 4 to 32% solvent B (0.1% formic acid, 5% DMSO in acetonitrile) in solvent A (0.1% formic acid, 5% DMSO in HPLC grade water) at a flow rate of 300 nL/min.
# The mass spectrometers were operated in data-dependent mode, automatically switching between MS1 and MS2 spectra. […]
# In Lumos settings, up to 12 peptide precursors were isolated in (isolation width of 1.2 Th for Lumos1 and 1.7 for Lumos2, maximum injection time of 75 ms, AGC value of 1e5 for Lumos1 and 2e5 for Lumos2), fragmented by HCD using 30% normalized collision energy (NCE) and analyzed in the Orbitrap at a resolution of 15,000 (Lumos2) or 30,000 (Lumos1). […]
row,Structure (SMILES),order of target affinity
1,"CN1CCc2c(c3ccccc3n2Cc2ccc(C(=O)NO)cc2)C1 [Tubastatin A, reference compound]",HDAC10>MBLAC2>HDAC6
2,O=C(NO)c1ccc(CN2CCCc3cc(Cl)ccc32)cc1 [SW-100],MBLAC2>>HDAC6>>HDAC10
3,CCCCN(Cc1ccc(C(=O)NO)cc1)C(=O)Nc1ccccc1 [Nexturastat A],MBLAC2>HDAC6>HDAC10
4,O=C(NO)c1ccc(Cn2c(=O)n(CCc3ccccc3)c(=O)c3ccccc32)cc1 [Compound J22352],MBLAC2>HDAC6
